Test results published in paper PMC12120064.

Sequences of proteins named here, by UniProt entry; tags and fusion partners are left off. A change or cut given only in a name is not applied to a line headed by its entry.
UniProt P13688: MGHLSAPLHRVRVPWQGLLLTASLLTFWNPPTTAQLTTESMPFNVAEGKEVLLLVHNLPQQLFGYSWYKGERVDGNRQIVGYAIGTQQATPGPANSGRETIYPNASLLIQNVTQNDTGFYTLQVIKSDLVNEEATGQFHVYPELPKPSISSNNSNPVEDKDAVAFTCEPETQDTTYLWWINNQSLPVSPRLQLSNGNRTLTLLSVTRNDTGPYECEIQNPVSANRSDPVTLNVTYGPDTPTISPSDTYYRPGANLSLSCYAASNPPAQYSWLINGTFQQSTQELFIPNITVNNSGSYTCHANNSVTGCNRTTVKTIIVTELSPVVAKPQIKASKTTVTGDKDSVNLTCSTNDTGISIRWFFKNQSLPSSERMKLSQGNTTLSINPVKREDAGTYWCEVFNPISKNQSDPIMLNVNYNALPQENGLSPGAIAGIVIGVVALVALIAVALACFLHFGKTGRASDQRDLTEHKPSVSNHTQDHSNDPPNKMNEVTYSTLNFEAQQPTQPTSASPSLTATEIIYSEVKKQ
UniProt P21333: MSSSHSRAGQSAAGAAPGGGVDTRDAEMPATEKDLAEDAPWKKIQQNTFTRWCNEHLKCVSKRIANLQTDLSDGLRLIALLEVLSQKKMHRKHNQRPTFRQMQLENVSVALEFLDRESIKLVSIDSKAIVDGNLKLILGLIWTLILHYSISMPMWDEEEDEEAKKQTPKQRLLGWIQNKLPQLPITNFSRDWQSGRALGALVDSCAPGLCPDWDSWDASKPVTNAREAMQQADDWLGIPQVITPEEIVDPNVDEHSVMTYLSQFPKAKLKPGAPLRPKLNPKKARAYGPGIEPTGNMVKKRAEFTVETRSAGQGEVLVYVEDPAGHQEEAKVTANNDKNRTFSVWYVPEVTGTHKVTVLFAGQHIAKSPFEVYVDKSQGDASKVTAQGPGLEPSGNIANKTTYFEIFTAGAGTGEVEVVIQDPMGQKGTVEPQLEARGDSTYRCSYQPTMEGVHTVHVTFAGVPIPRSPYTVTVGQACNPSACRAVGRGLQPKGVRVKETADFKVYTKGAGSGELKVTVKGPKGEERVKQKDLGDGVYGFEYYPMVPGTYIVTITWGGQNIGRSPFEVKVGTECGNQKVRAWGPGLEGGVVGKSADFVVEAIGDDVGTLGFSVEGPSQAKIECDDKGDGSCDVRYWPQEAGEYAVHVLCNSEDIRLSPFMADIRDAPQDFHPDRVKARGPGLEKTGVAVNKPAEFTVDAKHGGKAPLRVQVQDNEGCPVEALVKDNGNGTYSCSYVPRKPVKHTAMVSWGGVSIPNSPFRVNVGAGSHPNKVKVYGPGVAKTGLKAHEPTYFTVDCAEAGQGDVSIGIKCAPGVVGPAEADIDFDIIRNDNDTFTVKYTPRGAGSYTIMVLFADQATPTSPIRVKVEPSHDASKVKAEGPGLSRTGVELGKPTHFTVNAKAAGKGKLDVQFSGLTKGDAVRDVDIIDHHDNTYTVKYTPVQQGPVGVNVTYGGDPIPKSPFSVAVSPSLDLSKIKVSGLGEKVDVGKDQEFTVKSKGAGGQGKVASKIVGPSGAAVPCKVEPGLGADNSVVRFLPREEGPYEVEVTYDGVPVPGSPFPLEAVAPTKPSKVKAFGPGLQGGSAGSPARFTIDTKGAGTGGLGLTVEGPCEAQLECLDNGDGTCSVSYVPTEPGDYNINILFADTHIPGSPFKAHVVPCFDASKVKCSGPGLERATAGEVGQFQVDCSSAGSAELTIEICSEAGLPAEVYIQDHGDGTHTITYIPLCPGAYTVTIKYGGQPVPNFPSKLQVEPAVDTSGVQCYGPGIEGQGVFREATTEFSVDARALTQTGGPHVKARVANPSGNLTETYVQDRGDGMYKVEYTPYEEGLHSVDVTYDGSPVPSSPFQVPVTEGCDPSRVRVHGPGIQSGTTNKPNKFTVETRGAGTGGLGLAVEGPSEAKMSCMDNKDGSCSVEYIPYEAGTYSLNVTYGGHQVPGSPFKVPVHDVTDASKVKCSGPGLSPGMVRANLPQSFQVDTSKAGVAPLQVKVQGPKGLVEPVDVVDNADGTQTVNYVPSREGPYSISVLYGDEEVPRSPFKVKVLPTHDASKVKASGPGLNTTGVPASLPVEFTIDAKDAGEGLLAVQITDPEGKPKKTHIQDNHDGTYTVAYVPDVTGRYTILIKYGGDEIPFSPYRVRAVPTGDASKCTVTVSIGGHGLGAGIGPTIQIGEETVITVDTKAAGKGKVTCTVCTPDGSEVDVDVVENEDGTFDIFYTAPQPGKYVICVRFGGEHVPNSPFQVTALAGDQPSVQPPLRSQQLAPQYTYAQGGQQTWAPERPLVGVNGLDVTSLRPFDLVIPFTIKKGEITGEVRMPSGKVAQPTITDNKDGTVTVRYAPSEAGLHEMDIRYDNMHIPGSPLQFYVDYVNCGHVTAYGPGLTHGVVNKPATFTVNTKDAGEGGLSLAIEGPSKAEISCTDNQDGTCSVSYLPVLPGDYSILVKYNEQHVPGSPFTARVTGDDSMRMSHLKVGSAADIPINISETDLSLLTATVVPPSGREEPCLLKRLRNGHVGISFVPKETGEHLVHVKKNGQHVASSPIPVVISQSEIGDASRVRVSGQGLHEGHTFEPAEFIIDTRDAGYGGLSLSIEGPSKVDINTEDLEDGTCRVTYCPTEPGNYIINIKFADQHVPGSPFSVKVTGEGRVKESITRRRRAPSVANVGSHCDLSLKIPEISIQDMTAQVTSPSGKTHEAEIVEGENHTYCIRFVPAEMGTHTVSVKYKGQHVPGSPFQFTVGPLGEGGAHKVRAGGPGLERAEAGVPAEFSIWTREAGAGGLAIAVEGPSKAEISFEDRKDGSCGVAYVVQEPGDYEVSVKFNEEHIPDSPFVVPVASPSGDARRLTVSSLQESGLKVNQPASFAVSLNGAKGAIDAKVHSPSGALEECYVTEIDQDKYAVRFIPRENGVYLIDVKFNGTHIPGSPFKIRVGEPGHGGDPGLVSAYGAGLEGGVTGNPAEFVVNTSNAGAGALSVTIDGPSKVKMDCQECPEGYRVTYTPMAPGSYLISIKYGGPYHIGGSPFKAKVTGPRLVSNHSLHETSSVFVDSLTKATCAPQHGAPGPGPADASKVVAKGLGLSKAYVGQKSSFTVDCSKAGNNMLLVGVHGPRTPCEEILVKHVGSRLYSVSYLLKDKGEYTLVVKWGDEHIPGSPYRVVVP

Molecular target: N-domain deleted (ΔN) CEACAM1 (UniProt P13688)
Experiment: co-IP; CEACAM1-knockout JEKO-1 cells reconstituted with 4L, Y493F/Y520F or ΔN CEACAM1, stimulated with 2 μg/ml anti-IgM for the indicated times; CEACAM1 immunoprecipitated, immunoblot; IP buffer 50 mM Tris-HCl, 150 mM NaCl, 1% Triton X-100, 2 mM EDTA

- binding: no binding
Substance: filamin A (FLNA) (from UniProt P21333 1-2647)

These are yes or no findings as the source states them, for the method shown. In cells and extracts the contact can be indirect.
